Results taken from patent US5364414A, “Tinctorial composition for keratinous fibres containing oxidation dye precursors and aminoindole couplers, methods for dyeing using these compositions and new compounds” (L'Oreal, priority 1989, dated 1994).

Experiment: Hues obtained by oxidative coupling of the couplers with the dye precursors
Conditions: oxidative coupling with para or ortho dye precursors

Row | SMILES | hues obtained by oxidative coupling with the dye precursors
1 | Nc1ccc2cc[nH]c2c1 [6-aminoindole] | predominantly coppery hues (warm hues)
2 | Nc1cccc2cc[nH]c12 [7-aminoindole] | hues having ashy or deep auburn glints
